Data as given in PubChem BioAssay AID1224828 (NIAID, 2016)

Test: 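Regulators linking TLR4 signalling to p65 nuclear translocation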 (primary screen)
Cells: mouse RAW264.7 G9 macrophage reporter cells (GFP-p65, Tnf promoter-mCherry)
Reagents: siRNA pool against mouse genes, 100 nM
Time to read-out: 2 days siRNA transfection, then 40 min LPS before fixation
Treatment: LPS (Salmonella minnesota R595) at 10 ng/ml
Measurement: 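Microscopy ratio of nuclear to perinuclear-ring GFP-p65 signal, scaled to the plate median; gene score is the average of two replicate robust z-scores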
Scale: p65 translocation robust z-score: higher = more nuclear NF-kappaB p65 after LPS than the plate median; nuclear/cytoplasmic p65 ratio: higher = more nuclear NF-kappaB p65
Rule for the call: 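Active if robust z is above 3.3 (negative regulators) or below -1.56, the Tlr4 control median (positive regulators); activity score 50 or more; control wells not called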
Calls: active = hit (p65 shift raised or lowered); inactive = no clear change
This is an unselected part of about 17,000 reagents. 762 of them (4.5%) were called active. 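Active calls include both raised and lowered p65 entry, mostly lowered; wells with fewer than 50 cells lack a z-score.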 The raw values are shown without normalisation. Reagent sequences are not shown.

Gene | p65 translocation robust z-score | nuclear/cytoplasmic p65 ratio, rep 1 | nuclear/cytoplasmic p65 ratio, rep 2 | low cell count flag | outcome
Tespa1 | -0.97 | 1.36 | 1.33 | enough cells to score | inactive
Ddi2 | -0.31 | 1.35 | 1.45 | enough cells to score | inactive
Etfdh | 0.64 | 1.6 | 1.4 | enough cells to score | inactive
Il3 | – | 1.25 | 0 | fewer than 50 cells per well; well left out of scoring | inactive
Trim62 | 0.34 | 1.41 | 1.5 | enough cells to score | inactive
Slc22a2 | 0.57 | 1.48 | 1.37 | enough cells to score | inactive
Ubc | -0.95 | 1.41 | 1.34 | enough cells to score | inactive
Armc2 | – | 1.19 | 1.46 | fewer than 50 cells per well; well left out of scoring | inactive
Pwp2 | -0.43 | 1.31 | 1.18 | enough cells to score | inactive
Golim4 | -0.5 | 1.56 | 1.48 | enough cells to score | inactive
Elp4 | -0.34 | 1.49 | 1.32 | enough cells to score | inactive
Pou4f2 | -0.99 | 1.18 | 1.28 | enough cells to score | inactive
Rsu1 | 0.39 | 1.51 | 1.63 | enough cells to score | inactive
Sars1 | -0.55 | 1.34 | 1.16 | enough cells to score | inactive
Pira6 | 0.23 | 1.42 | 1.23 | enough cells to score | inactive
Paip1 | 0.99 | 1.53 | 1.39 | enough cells to score | inactive
Atp23 | 2.95 | 1.58 | 1.8 | enough cells to score | inactive
Reep5 | – | 1.22 | 1.56 | fewer than 50 cells per well; well left out of scoring | inactive
Mrpl2 | -0.63 | 1.75 | 1.44 | enough cells to score | inactive
Fcrl1 | -0.98 | 1.45 | 1.48 | enough cells to score | inactive
Or8g2b | – | 1.66 | 1.37 | fewer than 50 cells per well; well left out of scoring | inactive
Tpm1 | – | 1.46 | 1.54 | fewer than 50 cells per well; well left out of scoring | inactive
Rrm1 | – | 0 | 0.981 | fewer than 50 cells per well; well left out of scoring | inactive
Or8c10 | – | 1.17 | 1.09 | fewer than 50 cells per well; well left out of scoring | inactive

Quoted from the listing, 4 entries:
Gene | p65 translocation robust z-score | nuclear/cytoplasmic p65 ratio, rep 1 | nuclear/cytoplasmic p65 ratio, rep 2 | low cell count flag | outcome
Ddi2 | -0.31 | 1.35 | 1.45 | enough cells to score | inactive
Etfdh | 0.64 | 1.6 | 1.4 | enough cells to score | inactive
Il3 | – | 1.25 | 0 | fewer than 50 cells per well; well left out of scoring | inactive
Trim62 | 0.34 | 1.41 | 1.5 | enough cells to score | inactive
